Measured values taken from patent US11892406B2, “Method and device for assaying the interaction and dynamics of permeation of a molecule and a lipid bilayer” (DUBLIN CITY UNIVERSITY, priority 2018, dated 2024).

Experiment: Metal enhanced fluorescence permeation assay, DOPC bilayer spanned over gold microcavity array
Type: in vitro ADME
Details: bilayer modified array compared to unmodified cavity array
Procedure: Following removal of PS spheres, if in place, washing and aqueous filling of the array a Langmuir monolayer of lipids was spread across the micropore array, using either a Model 102M, LB trough or Model KN2006 from KSV-NIMA technology, LB alternate. The lipid mixture (across single or diverse lipid compositions) was prepared in chloroform at a concentration of 1 mg/ml. 50 μL of this solution was suspended on the water sub-phase. Fifteen minutes were allocated for evaporation of the solvent, prior to lipid monolayer compression. The rate of compression was 30 cm2/min and a constant surface pressure of 32 mN/m was maintained during the transfer of a probe labelled lipid monolayer from the water-air interface to the aqueous filled microcavity array. During LB transfer, the rate of the dipper motion was 5 mm min-1 to ensure adequate transfer. […]
A Horiba Labram HR instrument was used for both Raman and fluorescence measurements using a 50× long distance magnification objective (Leica). The wavelengths were typically 473 nm and 785 nm were used for fluorescence measurements and Raman measurements respectively. […] Typically a 1% neutral density filter and 300 μm slit were used for fluorescence and no filter for Raman. […]
For drug/molecular diffusion studies, drug solutions were prepared as stock solutions for introduction into the bilayer contacting solution dissolved in PBS or Tris buffer at concentrations that permitted final concentrations (on contact with the bilayer buffer) of 1 nM to several millimolar. […] Drug diffusion samples were analysed by first obtaining a bilayer spectra while sample is immersed in PBS. Once obtained, known concentrations of drug were added to the PBS in the case of Fluorescence in an open chamber of 2 mL volume containing the bilayer modified substrate spectra or in the case of Raman spectra in a closed microfluidic structure. […]

| Compound | change of emission spectrum whilst in the bilayer | change of emission spectrum whilst in the bilayer (listed as doxorubicin) |
| --- | --- | --- |
| COc1cccc2c1C(=O)c1c(O)c3c(c(O)c1C2=O)C[C@@](O)(C(=O)CO)C[C@@H]3O[C@H]1C[C@H](N)[C@H](O)[C@H](C)O1 [Doxorubicin] | transitory shift to the red | transitory shifts in emission peak maximum and relative intensity of the vibrational progression |
| COc1cccc2c1C(=O)c1c(O)c3c(c(O)c1C2=O)C[C@@](O)(C(C)=O)C[C@@H]3O[C@H]1C[C@H](N)[C@H](O)[C@H](C)O1 [Duanorubicin] | transitory shifts in emission peak maximum and relative intensity of the vibrational progression | – |
